Test results published in publication PMC11336912.
Results are given in words; binding and its absence hold for the method and conditions named. Binding seen in cells or lysates may run through a third protein. Some binding calls cover weakened binding; strength is not graded here. For part of these data: Tags and fused reporters may be left off the sequences shown.

Amino acid sequences for entries named in this document (tags omitted).
UniProt O75592: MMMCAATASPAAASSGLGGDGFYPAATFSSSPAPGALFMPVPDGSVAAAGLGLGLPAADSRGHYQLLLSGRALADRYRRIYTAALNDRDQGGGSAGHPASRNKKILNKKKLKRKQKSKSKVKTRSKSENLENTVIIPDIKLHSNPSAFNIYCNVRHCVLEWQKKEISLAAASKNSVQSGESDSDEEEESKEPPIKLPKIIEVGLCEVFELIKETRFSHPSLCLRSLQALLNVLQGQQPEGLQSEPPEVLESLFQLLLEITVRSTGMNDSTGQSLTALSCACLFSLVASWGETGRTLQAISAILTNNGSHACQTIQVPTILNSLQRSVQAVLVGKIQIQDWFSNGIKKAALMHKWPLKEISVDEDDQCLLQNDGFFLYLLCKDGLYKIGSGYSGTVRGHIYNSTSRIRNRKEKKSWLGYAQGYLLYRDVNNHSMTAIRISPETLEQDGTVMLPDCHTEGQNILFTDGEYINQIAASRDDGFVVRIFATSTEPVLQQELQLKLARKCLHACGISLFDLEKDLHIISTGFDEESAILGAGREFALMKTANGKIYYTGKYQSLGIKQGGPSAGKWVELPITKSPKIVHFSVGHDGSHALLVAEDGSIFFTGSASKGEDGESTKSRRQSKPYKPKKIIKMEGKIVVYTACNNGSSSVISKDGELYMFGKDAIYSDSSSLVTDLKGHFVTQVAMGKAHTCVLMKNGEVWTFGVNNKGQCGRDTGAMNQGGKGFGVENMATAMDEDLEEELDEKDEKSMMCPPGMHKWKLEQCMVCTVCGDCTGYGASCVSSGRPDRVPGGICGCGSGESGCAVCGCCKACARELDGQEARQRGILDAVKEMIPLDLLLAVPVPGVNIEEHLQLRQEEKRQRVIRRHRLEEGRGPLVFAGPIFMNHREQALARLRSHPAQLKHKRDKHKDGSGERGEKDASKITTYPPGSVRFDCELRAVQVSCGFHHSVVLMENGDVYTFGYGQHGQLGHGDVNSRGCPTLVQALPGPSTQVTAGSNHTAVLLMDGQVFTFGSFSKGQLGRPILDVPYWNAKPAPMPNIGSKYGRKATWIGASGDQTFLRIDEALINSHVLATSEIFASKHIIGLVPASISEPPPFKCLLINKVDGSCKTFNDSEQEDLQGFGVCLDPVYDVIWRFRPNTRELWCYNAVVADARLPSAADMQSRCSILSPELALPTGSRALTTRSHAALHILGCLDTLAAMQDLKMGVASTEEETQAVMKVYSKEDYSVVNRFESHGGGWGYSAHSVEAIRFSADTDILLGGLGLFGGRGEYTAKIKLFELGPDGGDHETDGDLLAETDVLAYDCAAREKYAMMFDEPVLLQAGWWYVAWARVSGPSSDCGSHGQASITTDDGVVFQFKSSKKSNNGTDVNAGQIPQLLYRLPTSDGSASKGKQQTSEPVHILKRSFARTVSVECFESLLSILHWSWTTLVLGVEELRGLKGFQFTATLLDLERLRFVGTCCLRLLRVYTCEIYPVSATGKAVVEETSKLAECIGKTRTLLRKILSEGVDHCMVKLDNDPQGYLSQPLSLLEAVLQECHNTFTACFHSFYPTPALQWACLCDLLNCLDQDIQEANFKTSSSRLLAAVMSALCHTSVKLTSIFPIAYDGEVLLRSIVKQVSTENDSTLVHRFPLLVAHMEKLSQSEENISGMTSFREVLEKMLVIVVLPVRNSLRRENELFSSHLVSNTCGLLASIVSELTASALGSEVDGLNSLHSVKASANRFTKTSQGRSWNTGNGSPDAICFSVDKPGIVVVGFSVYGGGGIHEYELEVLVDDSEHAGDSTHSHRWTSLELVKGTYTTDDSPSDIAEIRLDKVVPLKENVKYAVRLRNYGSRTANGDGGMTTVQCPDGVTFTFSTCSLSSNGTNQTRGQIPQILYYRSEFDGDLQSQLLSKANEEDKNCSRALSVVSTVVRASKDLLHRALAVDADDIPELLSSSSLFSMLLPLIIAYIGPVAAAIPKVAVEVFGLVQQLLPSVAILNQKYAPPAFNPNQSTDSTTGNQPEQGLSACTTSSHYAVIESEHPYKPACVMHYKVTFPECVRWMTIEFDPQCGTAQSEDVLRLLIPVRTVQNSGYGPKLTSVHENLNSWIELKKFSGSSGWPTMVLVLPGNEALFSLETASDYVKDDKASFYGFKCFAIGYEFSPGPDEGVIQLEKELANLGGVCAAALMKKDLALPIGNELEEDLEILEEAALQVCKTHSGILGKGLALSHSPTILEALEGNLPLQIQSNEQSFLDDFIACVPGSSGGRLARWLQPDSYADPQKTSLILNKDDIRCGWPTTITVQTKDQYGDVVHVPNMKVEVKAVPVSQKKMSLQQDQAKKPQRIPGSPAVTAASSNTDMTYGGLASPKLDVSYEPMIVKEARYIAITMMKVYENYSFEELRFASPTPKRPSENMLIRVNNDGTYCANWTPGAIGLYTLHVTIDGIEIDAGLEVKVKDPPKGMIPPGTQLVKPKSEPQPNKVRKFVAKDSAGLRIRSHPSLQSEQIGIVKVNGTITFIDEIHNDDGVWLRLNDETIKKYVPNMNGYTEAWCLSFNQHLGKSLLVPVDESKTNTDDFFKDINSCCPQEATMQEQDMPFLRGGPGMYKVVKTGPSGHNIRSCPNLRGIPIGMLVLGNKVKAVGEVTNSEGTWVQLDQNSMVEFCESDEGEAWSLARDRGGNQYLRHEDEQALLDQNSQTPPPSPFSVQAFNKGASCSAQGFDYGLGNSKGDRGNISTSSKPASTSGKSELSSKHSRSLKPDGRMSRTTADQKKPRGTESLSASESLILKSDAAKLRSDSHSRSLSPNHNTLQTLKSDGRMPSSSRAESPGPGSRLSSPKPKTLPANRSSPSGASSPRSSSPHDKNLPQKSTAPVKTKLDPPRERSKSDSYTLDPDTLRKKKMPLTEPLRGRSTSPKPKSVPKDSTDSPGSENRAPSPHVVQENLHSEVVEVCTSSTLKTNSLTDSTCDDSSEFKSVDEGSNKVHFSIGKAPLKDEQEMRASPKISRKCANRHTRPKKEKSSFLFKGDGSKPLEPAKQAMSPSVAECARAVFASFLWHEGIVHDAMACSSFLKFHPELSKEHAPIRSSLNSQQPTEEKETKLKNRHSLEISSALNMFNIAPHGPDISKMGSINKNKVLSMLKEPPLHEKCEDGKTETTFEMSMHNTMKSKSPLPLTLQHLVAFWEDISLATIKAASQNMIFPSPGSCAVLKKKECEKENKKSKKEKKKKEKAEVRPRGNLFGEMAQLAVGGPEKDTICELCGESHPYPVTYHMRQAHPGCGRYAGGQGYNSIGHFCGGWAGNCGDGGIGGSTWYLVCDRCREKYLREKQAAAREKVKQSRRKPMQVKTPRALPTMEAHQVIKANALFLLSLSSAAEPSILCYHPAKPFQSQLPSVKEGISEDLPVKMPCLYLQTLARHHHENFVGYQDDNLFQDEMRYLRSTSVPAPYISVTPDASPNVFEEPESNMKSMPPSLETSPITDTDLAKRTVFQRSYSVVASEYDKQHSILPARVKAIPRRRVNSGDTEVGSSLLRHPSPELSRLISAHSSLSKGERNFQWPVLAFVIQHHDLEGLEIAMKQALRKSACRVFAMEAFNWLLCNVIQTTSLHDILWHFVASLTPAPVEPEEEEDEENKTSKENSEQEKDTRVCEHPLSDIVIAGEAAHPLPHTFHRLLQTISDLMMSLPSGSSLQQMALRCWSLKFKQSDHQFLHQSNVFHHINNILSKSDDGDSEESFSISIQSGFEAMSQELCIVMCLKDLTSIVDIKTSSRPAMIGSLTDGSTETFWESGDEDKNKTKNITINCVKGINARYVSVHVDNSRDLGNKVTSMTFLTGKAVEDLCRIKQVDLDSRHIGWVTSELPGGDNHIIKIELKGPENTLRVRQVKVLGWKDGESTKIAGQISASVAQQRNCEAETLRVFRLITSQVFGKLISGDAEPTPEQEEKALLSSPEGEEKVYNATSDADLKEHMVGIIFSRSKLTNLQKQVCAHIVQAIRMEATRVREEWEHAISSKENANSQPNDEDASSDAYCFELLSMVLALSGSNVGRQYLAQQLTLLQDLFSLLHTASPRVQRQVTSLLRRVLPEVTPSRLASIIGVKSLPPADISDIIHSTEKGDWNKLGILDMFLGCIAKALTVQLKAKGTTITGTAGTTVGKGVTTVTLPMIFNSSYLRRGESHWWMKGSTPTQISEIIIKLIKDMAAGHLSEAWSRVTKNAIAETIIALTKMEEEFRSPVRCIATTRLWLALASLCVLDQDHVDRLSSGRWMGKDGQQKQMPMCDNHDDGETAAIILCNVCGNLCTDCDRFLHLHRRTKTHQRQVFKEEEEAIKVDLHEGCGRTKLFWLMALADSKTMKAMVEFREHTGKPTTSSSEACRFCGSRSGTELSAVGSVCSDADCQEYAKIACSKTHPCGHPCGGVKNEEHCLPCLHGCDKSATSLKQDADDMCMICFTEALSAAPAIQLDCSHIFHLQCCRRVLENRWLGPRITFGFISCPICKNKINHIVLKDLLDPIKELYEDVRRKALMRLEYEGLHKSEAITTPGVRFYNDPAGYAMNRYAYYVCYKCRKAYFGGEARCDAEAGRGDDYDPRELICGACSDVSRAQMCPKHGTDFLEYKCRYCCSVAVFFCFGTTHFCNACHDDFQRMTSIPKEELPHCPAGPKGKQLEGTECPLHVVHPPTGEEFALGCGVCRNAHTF

Key:
[1] = target: T1, S100A9 (endogenous, microglia) (mouse (endogenous in primary microglia)) (UniProt P31725); experiment: co-IP; endogenous proteins in microglia lysate; Pierce Co-IP Kit, antibodies pre-bound to agarose beads, overnight at 4 °C; Western blot; control IgG; forward and reverse
T1 sequence: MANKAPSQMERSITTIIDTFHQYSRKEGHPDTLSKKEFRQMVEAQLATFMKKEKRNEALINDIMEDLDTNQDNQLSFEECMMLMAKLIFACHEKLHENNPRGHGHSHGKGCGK

[2] = target: T2, Myc-tagged S100A9 (UniProt P06702); experiment: co-IP; HEK 293T cells overexpressing Flag-MYCBP2 and Myc-S100A9; Pierce Co-IP Kit, antibodies pre-bound to agarose beads, overnight at 4 °C; Western blot
T2 sequence: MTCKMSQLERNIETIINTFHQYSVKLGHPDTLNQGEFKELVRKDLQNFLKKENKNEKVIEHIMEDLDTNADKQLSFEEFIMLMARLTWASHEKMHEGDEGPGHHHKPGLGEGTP

[3] = target: MYCBP2 (endogenous, microglia) (mouse (endogenous in primary microglia)) (UniProt Q7TPH6); experiment: co-IP; endogenous proteins in microglia lysate; Pierce Co-IP Kit, antibodies pre-bound to agarose beads, overnight at 4 °C; Western blot; control IgG; forward and reverse

## MYCBP2 (endogenous, microglia) (from UniProt Q7TPH6 1-4749)
[1]
  binding: binds

## Flag-tagged MYCBP2 (from UniProt O75592 1-4678)
[2]
  binding: binds

B1: S100A9 (endogenous, microglia) (protein, UniProt P31725 1-113)
chain: T1 sequence
[3]
  binding: binds
